Assay results reported in PubChem BioAssay AID2073 (Sanford-Burnham Center for Chemical Genomics, 2009).
The whole screen tested about 290,000 compounds, of which about 570 (0.2%) were called active. This list was built around the results that the source calls inconclusive (neither active nor inactive); the mix of calls is not that of the screen. Cut-off read from the data, not from the text of the source: active = inhibition mostly above about 51% (no sharp cut-off); inconclusive = no clear call, values can overlap the other calls; inactive = mostly below about 53%.

The chains behind the UniProt entries cited, without tags or fusion partners.
UniProt Q00975, whole entry, looked up: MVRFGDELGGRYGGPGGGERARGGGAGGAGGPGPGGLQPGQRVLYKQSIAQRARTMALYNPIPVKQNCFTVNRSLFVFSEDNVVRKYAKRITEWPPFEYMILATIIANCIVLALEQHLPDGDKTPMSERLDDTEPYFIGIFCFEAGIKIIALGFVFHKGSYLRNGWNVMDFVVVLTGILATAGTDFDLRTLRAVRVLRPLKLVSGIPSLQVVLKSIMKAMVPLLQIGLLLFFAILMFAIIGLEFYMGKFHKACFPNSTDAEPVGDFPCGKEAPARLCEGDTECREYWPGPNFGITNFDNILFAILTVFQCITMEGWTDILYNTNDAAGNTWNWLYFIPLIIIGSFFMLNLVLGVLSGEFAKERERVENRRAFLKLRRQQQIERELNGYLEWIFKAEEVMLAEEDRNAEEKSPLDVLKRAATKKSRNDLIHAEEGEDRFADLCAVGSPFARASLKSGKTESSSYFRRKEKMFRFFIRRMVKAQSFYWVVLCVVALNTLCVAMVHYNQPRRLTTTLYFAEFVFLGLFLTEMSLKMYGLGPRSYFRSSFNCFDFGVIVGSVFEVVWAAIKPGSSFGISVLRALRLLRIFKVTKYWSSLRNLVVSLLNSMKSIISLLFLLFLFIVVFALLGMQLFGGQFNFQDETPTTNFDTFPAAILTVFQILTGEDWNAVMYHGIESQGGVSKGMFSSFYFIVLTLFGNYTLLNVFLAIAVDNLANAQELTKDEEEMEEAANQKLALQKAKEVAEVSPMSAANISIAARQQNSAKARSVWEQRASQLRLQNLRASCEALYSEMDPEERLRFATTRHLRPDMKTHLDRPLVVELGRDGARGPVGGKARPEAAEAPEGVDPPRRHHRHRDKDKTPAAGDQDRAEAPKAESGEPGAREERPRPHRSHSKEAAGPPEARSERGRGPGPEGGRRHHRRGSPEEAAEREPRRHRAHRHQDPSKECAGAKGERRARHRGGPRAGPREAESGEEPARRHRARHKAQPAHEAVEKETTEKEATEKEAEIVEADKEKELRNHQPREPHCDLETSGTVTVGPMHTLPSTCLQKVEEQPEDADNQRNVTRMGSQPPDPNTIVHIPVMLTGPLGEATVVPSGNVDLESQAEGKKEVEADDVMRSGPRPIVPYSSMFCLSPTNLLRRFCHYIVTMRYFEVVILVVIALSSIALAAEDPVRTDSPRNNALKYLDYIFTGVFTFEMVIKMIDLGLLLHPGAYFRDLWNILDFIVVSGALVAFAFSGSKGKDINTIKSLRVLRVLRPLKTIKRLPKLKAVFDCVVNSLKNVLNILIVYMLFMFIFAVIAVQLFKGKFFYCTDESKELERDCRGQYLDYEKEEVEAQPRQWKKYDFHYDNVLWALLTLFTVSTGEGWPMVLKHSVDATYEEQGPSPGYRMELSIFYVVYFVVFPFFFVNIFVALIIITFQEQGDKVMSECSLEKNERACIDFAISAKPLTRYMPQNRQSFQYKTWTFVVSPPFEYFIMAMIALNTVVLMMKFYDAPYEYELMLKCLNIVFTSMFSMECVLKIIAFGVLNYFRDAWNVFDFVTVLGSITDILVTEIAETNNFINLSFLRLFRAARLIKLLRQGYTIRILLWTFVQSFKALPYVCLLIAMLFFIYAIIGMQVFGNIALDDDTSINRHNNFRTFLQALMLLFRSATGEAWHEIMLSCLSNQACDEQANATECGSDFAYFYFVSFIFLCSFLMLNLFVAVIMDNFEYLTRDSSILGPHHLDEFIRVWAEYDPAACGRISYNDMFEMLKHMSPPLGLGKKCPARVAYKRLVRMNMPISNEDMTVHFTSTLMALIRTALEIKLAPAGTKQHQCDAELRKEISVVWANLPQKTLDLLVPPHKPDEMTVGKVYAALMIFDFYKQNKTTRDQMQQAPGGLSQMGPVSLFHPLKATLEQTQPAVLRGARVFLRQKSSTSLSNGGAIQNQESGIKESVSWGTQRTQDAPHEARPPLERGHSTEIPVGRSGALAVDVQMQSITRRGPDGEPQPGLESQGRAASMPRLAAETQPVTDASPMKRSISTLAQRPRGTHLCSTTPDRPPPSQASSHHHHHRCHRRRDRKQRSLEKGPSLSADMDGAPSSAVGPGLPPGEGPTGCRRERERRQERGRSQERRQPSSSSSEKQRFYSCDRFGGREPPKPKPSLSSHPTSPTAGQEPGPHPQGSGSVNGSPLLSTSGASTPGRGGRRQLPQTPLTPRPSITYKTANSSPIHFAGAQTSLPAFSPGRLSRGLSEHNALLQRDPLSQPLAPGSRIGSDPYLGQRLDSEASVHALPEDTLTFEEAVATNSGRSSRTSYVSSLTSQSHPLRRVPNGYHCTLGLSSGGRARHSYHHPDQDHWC

These compounds were tested against Voltage-dependent N-type calcium channel subunit alpha-1B (Homo sapiens) (UniProt Q00975) (assay: disruptors of CaV2.2 binding to Mint1 – biochemical, HTRF (AID 2073)). Conditions: HTRF protein-protein interaction, Mint1-CaV2.2; at 20 µM; hits give high values.

| SMILES | inhibition |
| --- | --- |
| Cc1ccc(NC(=S)NC(C)CCc2ccccc2)cc1C (configuration not stated) | inconclusive: 53.6% |
| O=S(=O)(c1ccccc1)N1CCC(O)(CN2CCN(c3ccccc3)CC2)CC1 | inconclusive: 55% |
| CC(C)c1nc(SCC(=O)N2c3ccccc3CC2C)c2ccccc2n1 (configuration not stated) | inconclusive: 85.5% |
| CCn1cc(C2Nc3ccccc3C(=O)N2O)c(C)n1 (configuration not stated) | inconclusive: 62% |
| O=C1CN(Cc2cc(=O)oc3cc4c(cc23)CCC4)CCN1 | inconclusive: 75.9% |
| O=C1OC(c2ccc(F)cc2)=C/C1=C\c1ccc([N+](=O)[O-])o1 | active: 73% |
| CC(C)C(C(=O)NCc1ccco1)N(CC1CCCO1)C(=O)CNS(=O)(=O)c1ccc(F)cc1 (configuration not stated) | inconclusive: 69.4% |
| CCN(CC)CCNC(=O)Cn1c(-c2ccccn2)nc2ccccc21 | inconclusive: 69.1% |
| O=C(OCCN1C(=O)c2cccc3c(N4CCOCC4)ccc(c23)C1=O)c1ccc(Cl)cc1Cl | inconclusive: 55.8% |
| CCn1cc(C(=O)O)c(=O)c2cc(F)c(N3CCN(C(=S)NC(=O)c4ccccc4)CC3)cc21 | inactive: -5.6% |
| Cn1c(=O)c2c(-c3ccc(C(C)(C)C)cc3)n(CC3CCCO3)cc2n(C)c1=O (configuration not stated) | inactive: 8.1% |
| COc1cc(C2C(=O)c3ccccc3C2=O)ccc1O | inconclusive: 63.1% |
| CN(Cc1ccsc1)C(=O)CCc1nnc(CCCc2ccccc2)o1 | inconclusive: 90.7% |
| Fc1cccc(Cc2noc(CN3CCN(C4CCc5ccccc5C4)CC3)n2)c1 (configuration not stated) | inconclusive: 79.4% |
| Cc1cc(NC(=O)CSc2nc(CC(C)(C)C)nc3c2c(=O)n(C)c(=O)n3C)no1 | inconclusive: 50.6% |
| Cc1cc(C)nc(SCc2ccc(C(=O)N/N=C/c3ccccn3)cc2)n1 | inconclusive: 68.6% |
| CCN(CC)S(=O)(=O)c1ccc(C(=O)OCCN2C(=O)c3cccc4c(N5CCOCC5)ccc(c34)C2=O)cc1 | inconclusive: 72.2% |
| Cc1oc(-c2ccc3c(c2)OCCO3)cc1C(=O)NC(CCC(=O)O)C(=O)O (configuration not stated) | inactive: 20.1% |
| CC1(C)Cc2ccccc2-c2[nH]c(=S)[nH]c(=O)c21 | inconclusive: 64% |
| Cc1ccc2c(Cl)cc(Cl)c(OCC(=O)NCc3ccco3)c2n1 | active: 56.6% |
| CC(=O)Oc1ccc(C(=O)c2ccccc2)c(OC(C)=O)c1 | inconclusive: 60.4% |
| CC(C)CCNC(=O)C(C)N(C(=O)c1snc(C(N)=O)c1N)c1cnc2ccccc2c1 (configuration not stated) | inconclusive: 52% |

| SMILES | inhibition |
| --- | --- |
| COc1cc2c(cc1OC)C(c1cccc([N+](=O)[O-])c1)=NCC2 | inconclusive: 56.7% |
| CCOC(=O)c1cccc(-n2c(C)nc3ccccc3c2=O)c1 | inconclusive: 63.3% |
| Cc1cc(Br)c2nc3c(c(C(=O)O)c2c1)CCCCC3 | inconclusive: 60.3% |
| CCN(C(=O)CCN1C(=O)S/C(=C\c2ccccc2)C1=O)C1CCS(=O)(=O)C1 (configuration not stated) | inconclusive: 52.8% |
| CCOC(=O)c1c(NC(=O)COC)sc(C(C)=O)c1C | inactive: 6.4% |
| Cc1cc(=O)[nH]c(N/N=C/c2c(C)nn(-c3ccc(F)cc3)c2Cl)n1 | inconclusive: 64% |
| COc1ccc2[nH]c(=O)c(CN(Cc3ccco3)C(c3nnnn3Cc3ccccc3)C(C)C)cc2c1 (configuration not stated) | inactive: 12.1% |
| Nc1nonc1-n1nnc(C(=O)N/N=C/c2ccc(F)cc2)c1-c1cccs1 | inactive: 4.3% |
| COc1ccc(NC(=O)N(C2CCCCC2)C(C)c2ccco2)c(OC)c1 (configuration not stated) | inconclusive: 78.6% |
| O=C(NCc1ccc(F)cc1)C1CCCN1C(=O)Nc1cccc(F)c1 (configuration not stated) | inactive: 8.7% |
| COCCn1c(=N)c(S(=O)(=O)c2ccc(F)cc2)cc2c(=O)n3cccc(C)c3nc21 | inconclusive: 51.2% |
| O=C(Nc1ccccc1Cl)N1C2CCC1CC(O)(c1cccnc1)C2 (configuration not stated) | inconclusive: 66.2% |
| Cc1nc2cc(NC(=O)Nc3ccc(Br)cc3)ccc2o1 | inconclusive: 79.6% |
| COc1ccc(CC(=O)N2CCN=C2SCc2cccc([N+](=O)[O-])c2)cc1 | inconclusive: 55.2% |
| COCCNC(=O)c1cccc(Nc2nc(-c3ccccc3)c3cc(Cl)ccc3n2)c1 | active: 54.5% |
| Cc1oc(-c2ccccc2F)nc1CS(=O)(=O)CC(=O)N1CCCCCC1 | inactive: -4.2% |
| COc1ccc(C2=NS(=O)(=O)N(C)C(C(=O)Nc3cc(OC)c(OC)c(OC)c3)=C2)cc1 | inconclusive: 88.7% |
| Cc1ccc(-c2nn(-c3ccccc3)cc2/C=N/O)cc1 | inconclusive: 76.7% |
| Nc1c(C(=O)Nc2ccccc2)sc2nc3c(c(-c4ccco4)c12)CCC3 | inactive: 29.5% |
| CC(C)N(C(=O)Nc1ccc2nccnc2c1)C(C)C | inconclusive: 92.7% |
| O=C(Cc1nnc(NC(=O)Nc2ccccc2)s1)NCc1ccccc1 | inconclusive: 56.9% |
| O=c1oc(-c2cccs2)nc2ccccc12 | inconclusive: 51.5% |

At a glance, 6 of the compounds above.

| SMILES | inhibition |
| --- | --- |
| Cc1oc(-c2ccccc2F)nc1CS(=O)(=O)CC(=O)N1CCCCCC1 | inactive: -4.2% |
| COc1ccc(C2=NS(=O)(=O)N(C)C(C(=O)Nc3cc(OC)c(OC)c(OC)c3)=C2)cc1 | inconclusive: 88.7% |
| Cc1ccc(-c2nn(-c3ccccc3)cc2/C=N/O)cc1 | inconclusive: 76.7% |
| Nc1c(C(=O)Nc2ccccc2)sc2nc3c(c(-c4ccco4)c12)CCC3 | inactive: 29.5% |
| CC(C)N(C(=O)Nc1ccc2nccnc2c1)C(C)C | inconclusive: 92.7% |
| O=C(Cc1nnc(NC(=O)Nc2ccccc2)s1)NCc1ccccc1 | inconclusive: 56.9% |

(cont.)

| SMILES | inhibition |
| --- | --- |
| CCc1ccc2nc(N(CCCN(C)C)C(=O)c3ccc(S(=O)(=O)N4CCCC4)cc3)sc2c1 | inactive: -0.7% |
| Cc1cccc(NC(=O)C2SC(=Nc3c(C)cccc3C)C(C(=O)N3CCOCC3)=C2N)c1 (configuration not stated) | inconclusive: 51.9% |
| COc1ccc(-c2cc(-c3ccco3)[nH]c(=O)c2C#N)cc1 | inactive: 24.8% |
| C=CC#CC1(O)CC(C)N(C)CC1C (configuration not stated) | inconclusive: 52.2% |
| O=C(CSc1nc2ccccc2c(=O)[nH]1)Nc1ccccc1O | inactive: -8.6% |
| Fc1ccccc1N1CCN(c2ncnc3[nH]ncc23)CC1 | inconclusive: 61% |
| COc1ccc(/C=C(/NC(=O)c2ccc(C)cc2)c2nc3ccccc3[nH]2)cc1OC | inconclusive: 65.3% |
| O=C(O)c1cccc(-c2ccc(/C=c3/sc4nc5ccccc5n4c3=O)o2)c1 | inactive: 26.7% |
| COc1ccc(N2CCN(C(=O)Cn3nnc(-c4ccccc4N)n3)CC2)cc1 | inconclusive: 70.7% |
| C=CCN=C(NC#N)SCC(=O)NCc1ccccc1 | inactive: 2.2% |
| COC(=O)c1ccc(-n2cc(-c3ccc(OC)cc3)[nH]c2=S)cc1 | inconclusive: 56.3% |
| CCOc1cccc2sc(Nc3nc4ccc(NC(C)=O)cc4s3)nc12 | inactive: 28.4% |
| O=[N+]([O-])c1nn(-c2ccccc2)[n+]([O-])c1N1CCN(c2ccccc2F)CC1 | inconclusive: 67.4% |
| COCC(=O)N(c1ccc(C(C)C)cc1)C1C=CS(=O)(=O)C1 (configuration not stated) | inconclusive: 80.7% |
| COc1cc2c(cc1OC)C(C)N(C(=O)c1cc3c(=O)oc4ccc(C)cc4c3s1)CC2 (configuration not stated) | inconclusive: 83.4% |
| O=C(CSc1nnc(SCc2ccccc2)s1)N/N=C/C=C/c1ccco1 | active: 50.1% |
| Cc1ccsc1C(=O)Nc1ccc(O)c(-c2nc3ccccc3s2)c1 | inconclusive: 58% |
| CCn1c(C(=O)N2CCC(C(=O)NCc3ccc4c(c3)OCO4)CC2)cc2sccc21 | inconclusive: 51.6% |
| CC(=O)N(CN1C(=O)C2C3C=CC(C3)C2C1=O)c1cccc(Cl)c1 (configuration not stated) | inconclusive: 65.7% |
| O=C(NCC1CCCO1)c1cc(-c2ccccc2)nc2ccc(Br)cc12 (configuration not stated) | inconclusive: 50.5% |
| Cc1ccc(C(=O)NNC(=O)CNc2cccc(Cl)c2)cc1 | inconclusive: 87% |
| CCC(C)NC(=S)Nc1ccc(C(=O)OC)cc1 (configuration not stated) | inconclusive: 54.5% |

| SMILES | inhibition |
| --- | --- |
| O=C(c1ccco1)N1N=C(c2ccncc2)CC1(O)C(F)(F)F (configuration not stated) | inconclusive: 79.9% |
| C=CCN1C(=O)N(c2ccc(F)cc2)C(=O)C1CC(=O)Nc1ccc(Cl)cc1 (configuration not stated) | inconclusive: 65% |
| CC(C)CC(=O)Nc1ccc(S(=O)(=O)NCc2ccco2)cc1 | inconclusive: 55.1% |
| COc1ccc(-c2cc(C(F)(F)F)c(C#N)c(SCC(=O)O)n2)cc1 | inactive: 22% |
| CCCc1cc(O)c2c(C)cc(=O)oc2c1 | inconclusive: 56.1% |
| Cc1cccnc1CCNCc1c(C(=O)N2C[C@@H](C)O[C@@H](C)C2)nc2ccc(Cl)cn12 | inconclusive: 57.6% |
| COC(=O)c1ccc(OC(=O)CCN2C(=O)C3C4c5ccccc5C(c5ccccc54)C3C2=O)cc1 (configuration not stated) | inconclusive: 52.3% |
| Cc1cc(F)ccc1S(=O)(=O)Nc1ccccc1C(=O)Nc1ccccc1-c1nc2ccccc2[nH]1 | inconclusive: 71% |
| COc1ccc(OC)c(N=c2ssnc2Cl)c1 | inactive: 27.6% |
| Cc1ccccc1N1C(=O)CC(Sc2nnc(-c3ccccc3)o2)C1=O (configuration not stated) | inconclusive: 53.5% |
| NC(=O)CC(NC(=O)c1cccc(Br)c1)c1ccc(NCCN2CCOCC2)c([N+](=O)[O-])c1 (configuration not stated) | inconclusive: 58.7% |
| Cc1ccc(NC(=O)c2cc(-c3ccc(C)c(C)c3O)n[nH]2)cc1C | inactive: 12.1% |
| O=C1OC(c2ccc(F)cc2)=C/C1=C\c1ccc(O)cc1 | inactive: -0.4% |
| CC1=NOC(=O)/C1=C/c1ccc(N(C)C)cc1 | inconclusive: 62% |
| COc1cccc(NC(=S)Nc2cc(C)cc(C)n2)c1 | inconclusive: 50.8% |
| Cc1cc(C)cc(Oc2coc3c(CN(C)C)c(O)ccc3c2=O)c1 | inconclusive: 95.7% |
| Cc1cc(C(=O)COc2cccnc2[N+](=O)[O-])c(C)n1Cc1cccs1 | inactive: 34% |
| O=C(NNS(=O)(=O)c1ccccc1)C1CC(c2cccnc2)=NO1 (configuration not stated) | inconclusive: 53.9% |
| CC(C)CNC(=O)CSc1nc(-c2cccs2)cc(C(F)(F)F)n1 | inactive: 16.7% |
| CN(C)C(CNC(=O)Cc1cccc(C(F)(F)F)c1)c1ccco1 (configuration not stated) | inconclusive: 66.2% |
| CC1(C)CC2CC(C)(CN2C(=O)C23CCC(C)(C(=O)O2)C3(C)C)C1 (configuration not stated) | inconclusive: 64.6% |
